Assay results published in PubChem BioAssay AID540276 (National Center for Advancing Translational Sciences (NCATS), 2011).
Where “and” joins values, the source holds several entries; their conditions need not be identical. Equal values may be shown once. The campaign covered roughly 300,000 compounds. About 5,400 (1.8%) were called active. The shares of active, inactive and inconclusive entries below differ from those in the screen. Calls follow the shape of the full dose curve; tested in HEK293 cells. A potency beside an inconclusive call is a rough fit, not a confirmed value.
Potency is read from the fitted curve at half-maximal effect.

Test: qHTS for inhibitors of binding or entry into cells for Marburg Virus
Conditions: Marburg virus pseudotyped entry inhibition, cell reporter; series mostly up to 37.8 µM
With `CCOC(=O)C1=C(C)NC(=O)NC1c1ccccc1OCc1c(F)cccc1Cl` (centres undefined) the Potency was inconclusive: 35.5 µM [inhibitor, single point]. For `Cc1cc(C(=O)O)cc(S(=O)(=O)Nc2ccccc2C(=O)NC2CC2)c1C`, the Potency was inconclusive: 7.94 µM [activator, full curve, poor fit]. For `C/C(=N\NC(=O)c1ccc(CN2CCOCC2)cc1)c1cccc([N+](=O)[O-])c1`, the Potency was inconclusive: 29.1 µM [inhibitor, single point]. With `CC(C)(C)C(=O)Oc1cc(N)n(S(=O)(=O)c2ccc(F)cc2)n1` the Potency was “inactive”. For `O=S(=O)(Nc1c(S(=O)(=O)c2ccccc2)c2nc3ccccc3nc2n1C1CCCCC1)c1ccccc1`, the Potency was “inactive”. With `O=C(O)/C=C\c1ccc(O)c(O)c1` the Potency was inconclusive: 18.4 µM [inhibitor, single point]. For `O=c1[nH]ncc(N/N=C\c2ccc(O)cc2O)c1Cl`, the Potency was “inactive”. With `O=C(NNC(=O)c1cccc2ccccc12)c1ccc(-c2ccccc2)cc1` the Potency was inconclusive: 10.3 µM [inhibitor, partial curve]. With `Cc1ccc2c(Sc3ccc(Cl)cc3)c(C(=O)N3CCC(C)CC3)[nH]c2c1` the Potency was “inactive”. With `O=C(CSc1nc(-c2ccccc2Cl)ns1)Nc1ccc2c(c1)OCO2` the Potency was inconclusive: 0.794 µM [activator, partial curve, poor fit]. For `COC(=O)c1cc2sc(Cl)cc2n1CC(=O)Nc1ccc(OC)c(OC)c1OC`, the Potency was “inactive and inconclusive: 20.6 µM [inhibitor, single point]”. For `CCc1nc(N)c(C#N)c(-c2cccnc2)c1C`, the Potency was “inactive”. In the case of `Cc1ccc2cc(NC(=O)c3ccc(C(C)(C)C)cc3)ccc2n1`, the Potency is reported as inconclusive: 12.6 µM [inhibitor, single point]. With `CCN(CCn1cccn1)C(=O)c1cc(COc2ccc(F)c(F)c2)on1` the Potency was inconclusive: 1.26 µM [activator, full curve, poor fit]. For `CSc1cccc(NC(=S)N2CCC(N(C)C3CCCCC3C)CC2)c1` (centres undefined), the Potency was inconclusive: 11.2 µM [inhibitor, single point]. With `COCCCNCCOc1cc(C(C)C)ccc1C` the Potency was inconclusive: 7.3 µM [inhibitor, partial curve]. In the case of `CC(=O)Nc1ccc(S(=O)(=O)Nn2cnnc2)cc1`, the Potency is reported as inconclusive: 35.5 µM [activator, single point]. In the case of `O=C(CSc1ccc(-c2ccccc2)nn1)c1cccs1`, the Potency is reported as inconclusive: 3.98 µM [inhibitor, single point]. For `O=C(COc1ccc2ccccc2c1)N1CCN(CC2CC3C=CC2C3)CC1` (centres undefined), the Potency was inconclusive: 28.2 µM [inhibitor, single point]. With `Clc1ccc(-c2csc(N/N=C/c3ccco3)n2)cc1` the Potency was inconclusive: 35.5 µM [inhibitor, single point]. For `Cc1ccc(-n2c(C)cc3c2CC(C)(C)CC3=O)cc1C`, the Potency was inconclusive: 2.06 µM [inhibitor, partial curve, poor fit]. With `Cc1ccc2nc(N3CCN(c4cccc(Cl)c4)CC3)c(-n3nc(C)cc3C)nc2c1` the Potency was inconclusive: 7.08 µM [inhibitor, partial curve]. In the case of `Cc1[nH]c2ccccc2c1CCNC(=O)c1ccc2nccnc2c1`, the Potency is reported as “inactive”. With `COc1ccccc1OCCSc1nc(N)cc(N)n1` the Potency was inconclusive: 17.8 µM [activator, single point]. In the case of `CCCCCCn1c(C(C)NC(=O)c2ccco2)nc2ccccc21` (centres undefined), the Potency is reported as inconclusive: 10 µM [inhibitor, partial curve, poor fit]. With `CCCC(=O)C1C(=O)CC(CC(C)SCC)CC1=O` (centres undefined) the Potency was “inactive”. In the case of `COc1cc(-c2cc(OC)c3c(C)oc(C)c3c(=O)c2)ccc1OC(=O)c1ccccc1Cl`, the Potency is reported as inconclusive: 35.5 µM [inhibitor, single point]. For `Clc1ccc(Sc2cc(Cl)c(-c3ccccc3)nn2)cc1`, the Potency was inconclusive: 31.6 µM [activator, single point]. In the case of `COc1ccc2c(c1)Cc1sc(NC(=O)c3cccs3)nc1-2`, the Potency is reported as inconclusive: 2.31 µM [activator, partial curve, poor fit]. For `COc1ccc(N(CC(=O)NN=C2CCCC2)S(=O)(=O)c2ccccc2)cc1Cl`, the Potency was “inactive”. In the case of `Cc1ccc(C)c(N2CCN(C(=O)C3CCCN(S(=O)(=O)c4ccc5c(c4)oc(=O)n5C)C3)CC2)c1` (centres undefined), the Potency is reported as inconclusive: 0.562 µM [inhibitor, full curve, poor fit]. With `Cc1cccc(NC(=O)CN(CC2CCCO2)C(=O)c2ccc(S(C)(=O)=O)cc2)c1C` (centres undefined) the Potency was “inactive”. In the case of `O=C(O)c1cc(=S)nc[nH]1`, the Potency is reported as “inactive”. With `O=C(Nc1ccccc1Cc1ccccc1)c1oc2ccccc2c1COc1ccccc1` the Potency was inconclusive: 11.2 µM [inhibitor, single point]. With `Cc1cc(N)ccc1-n1nc2ccccc2n1` the Potency was inconclusive: 35.5 µM [activator, single point]. In the case of `COc1ccc(C(=O)C/C(=C\C(=O)c2ccc(C)cc2)c2ccccc2)cc1`, the Potency is reported as inconclusive: 29.1 µM [inhibitor, single point]. With `CCOCCSc1nc2c(c(-c3cccs3)c1C#N)CC/C2=C/c1cccs1` the Potency was inconclusive: 1.41 µM [inhibitor, full curve, poor fit]. For `CCc1ccc(C(=O)c2cn(CC(=O)Nc3ccc4c(c3)OCO4)c3cc(OC)c(OC)cc3c2=O)cc1`, the Potency was “inactive”. With `Cc1ccc(-c2nnc(SCc3ccccc3C)o2)cc1` the Potency was inconclusive: 5.62 µM [activator, single point]. In the case of `Cc1c(C(=O)NC(=S)NCc2cccnc2)cccc1[N+](=O)[O-]`, the Potency is reported as “inactive”. With `CCc1nc(SCc2cc(Cl)ccc2OC)n[nH]1` the Potency was “inactive”. With `O=C1CC(c2cc(Br)ccc2F)c2cc3c(cc2N1)CCC3` (centres undefined) the Potency was inconclusive: 0.58 µM [inhibitor, full curve]. For `CCOC(=O)c1ccc(NC(=O)CN2C(=O)CSCC2=O)cc1`, the Potency was “inactive”. For `CC(C)CON=C1C[C@@H](O)[C@@H](O)[C@@H]2[C@H]3C(=O)N(Cc4ccc5c(c4)OCO5)C(=O)[C@@H]3CC[C@H]12`, the Potency was inconclusive: 0.841 µM [activator, full curve, poor fit]. For `CCOC(=O)C1CCCN(CC(=O)Nc2ccc(C(=O)Nc3ccccc3OC)cc2)C1` (centres undefined), the Potency was inconclusive: 35.5 µM [inhibitor, single point]. For `Cc1ccccc1C(=O)n1nc(-c2ccco2)nc1NCc1ccc(Cl)cc1`, the Potency was “inactive”. In the case of `Cc1cccc(C(=O)NC(Oc2ccccc2)C(Cl)(Cl)Cl)c1` (centres undefined), the Potency is reported as inconclusive: 13 µM [inhibitor, single point]. For `O=S(=O)(c1ccc(NC(=S)NCc2ccncc2)cc1)N1CCCCC1`, the Potency was inconclusive: 35.5 µM [inhibitor, single point]. In the case of `COc1ccc2cc(C(=O)NCC3CCCO3)[nH]c2c1` (centres undefined), the Potency is reported as inconclusive: 5.62 µM [activator, single point]. For `Cc1ccc(C(C)C)c(OCC(=O)NCC2(N(C)C)CCCCC2)c1`, the Potency was inconclusive: 11.2 µM [inhibitor, partial curve, poor fit]. For `CCn1c(=O)cc(OCC(=O)Nc2cc(Cl)c(OC)cc2OC)c2ccccc21`, the Potency was inconclusive: 3.16 µM [activator, full curve, poor fit]. In the case of `CCOc1ccc(CCNC(=O)c2cc3c(-c4ccc(OC)c(OC)c4)nn(C)c3s2)cc1OCC`, the Potency is reported as inconclusive: 35.5 µM [inhibitor, single point]. For `COc1ccc(NC(=O)CSc2nc(NS(=O)(=O)c3ccccc3)cc(=O)[nH]2)cc1`, the Potency was “inactive”. In the case of `CCCCOc1ccc(N(CC(=O)NCC2CCCO2)C(=O)CCC(=O)Nc2cc(C)ccn2)cc1` (centres undefined), the Potency is reported as inconclusive: 6.51 µM [inhibitor, full curve]. With `O=C(O)c1ccc(/C=N/N2CCN(Cc3ccc(Cl)cc3)CC2)cc1` the Potency was “inactive”. With `CCOC(=O)C1=CN(C)C=C(C(=O)OCC)C1c1ccsc1` the Potency was “inactive”. In the case of `O=C(NC(c1ccccc1)C(Cl)(Cl)Cl)c1ccccc1` (centres undefined), the Potency is reported as inconclusive: 7.08 µM [inhibitor, full curve]. With `COc1ccc(-c2nnnn2CCc2ccccc2)cc1` the Potency was “inactive”. For `CC(C)(CO)NCc1cccc(OCc2ccc(Cl)cc2)c1`, the Potency was inconclusive: 20.6 µM [inhibitor, single point]. For `Cc1noc(C)c1COC(=O)CN(C)S(=O)(=O)c1ccc(Cl)cc1`, the Potency was inconclusive: 5.62 µM [activator, single point]. With `O=C(Nc1cccnc1Cl)c1cc(-c2cccc(Cl)c2)on1` the Potency was inconclusive: 11.2 µM [inhibitor, single point]. In the case of `C=C(C)c1cccc(C(C)(C)NC(=O)Nn2cnnc2)c1`, the Potency is reported as “inactive”. With `Cc1cccc(CN2C(=O)N/C(=C/c3ccc(C)s3)C2=O)c1` the Potency was inconclusive: 14.1 µM [inhibitor, partial curve, poor fit]. With `CCOC(=O)Cc1ncccc1C(=O)Nc1ccc(OC(F)(F)F)cc1` the Potency was inconclusive: 22.4 µM [inhibitor, single point]. In the case of `O=C(NC(=S)NC1CCCCCCCCCCC1)c1cccnc1`, the Potency is reported as inconclusive: 1.41 µM [activator, partial curve, poor fit]. For `COc1ccccc1Nc1nc(N)nc(CSc2nncn2C)n1`, the Potency was “inactive”. In the case of `Cc1ccccc1N=C/C=C1/C=C(c2ccccc2)OC(C)(C)O1`, the Potency is reported as inconclusive: 29.1 µM [inhibitor, single point]. With `Cc1cc(C)cc(NC(=O)c2ccc(S(=O)(=O)N(C)CC3CCCO3)cc2)c1` (centres undefined) the Potency was inconclusive: 1.26 µM [inhibitor, full curve, poor fit]. For `O=C(CSc1nc(Nc2ccccc2)nc(N2CCOCC2)n1)NC1CCCCC1`, the Potency was inconclusive: 31.6 µM [inhibitor, single point].
